Source: patent US20090162308A1, “USE OF 2,4'-DIMETHYLPROPIOPHENONE AS A FRAGRANCE SUBSTANCE” (SYMRISE GmbH & Co. KG, priority 2007, published 2009)
At least one read-out could not be matched to a standard name with certainty.

Experiment: Stability and recovery rates on storage of the fragrance substance in product matrices
Assay type: physicochemical
Conditions: storage at 38° C.
[1] = EDT (Eau-de-toilette), 2 Months

| Compound | Recovery rate (Antiperspirant, 1 Month) [%] | Recovery rate (Antiperspirant, 2 Months) [%] | Recovery rate (Bleach, 1 Month) [%] | Recovery rate (Bleach, 2 Months) [%] | Recovery rate (EDT (Eau-de-toilette), 1 Month) [%] | Recovery rate [1] [%] | Recovery rate (Hair coloration, 1 Month) [%] | Recovery rate (Hair coloration, 2 Months) [%] | Recovery rate (Shampoo, 1 Month) [%] | Recovery rate (Shampoo, 2 Months) [%] | Recovery rate (Soap, 1 Month) [%] | Recovery rate (Soap, 2 Months) [%] | Recovery rate (Washing powder, 1 Month) [%] | Recovery rate (Washing powder, 2 Months) [%] |
| --- | --- | --- | --- | --- | --- | --- | --- | --- | --- | --- | --- | --- | --- | --- |
| Cc1ccc(C(=O)C(C)C)cc1 [2,4′-dimethylpropiophenone] | 98 | 94 | 16 | 15 | 100 | 100 | 100 | 99 | 96 | 96 | 100 | 100 | 99 | 91 |
| C=C(C)[C@H]1CC=C(C)C(=O)C1 [D-carvone, nat., D-carvone] | 89 | 86 | 0 | 0 | 100 | 99 | 91 | 78 | 92 | 87 | 100 | 98 | 75 | 67 |
